Results published in PubChem BioAssay AID2685 (National Center for Advancing Translational Sciences (NCATS), 2010).
The other results are listed elsewhere or left out. These are further read-outs of the screen, such as a control signal, another cell line or another target. No call is given for them. Compounds called inactive in the main read-out are mostly missing here. Potencies come from curve fits of mixed quality, noted in brackets.

Experiment: qHTS Assay for Lipid Storage Modulators in Drosophila S3 Cells;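 for cell number change: cells counted by Cell Tracker Red CMTPX staining in the red channel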
Conditions: BODIPY lipid droplet fluorescence, 18-24 h; for cell number change: measured here: cell count max response, cells fed with added oleic acid
Method in brief: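 Drosophila S3 cells got compounds at several concentrations plus oleic acid (400 uM solution). Laser-scanning cytometry with 488 nm excitation read lipid droplets at 500-530 nm and cells at 575-640 nm. Percent activity was relative to 20 uM Triacsin C.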

[1] = measured here: cell number channel AC50, cells fed with added oleic acid
[2] = measured here: lipid fluorescence (Fed channel) AC50, cells fed with added oleic acid

## COc1ccc2c(c1OC)C(=O)OC2Nc1ccccn1 (centres undefined)
  cell number change: 4.46%

## O=C(NCc1cccnc1)c1cccnc1-c1nc2ccccc2s1
[1]
  AC50: 0.58 µM [rising, single point]

## CCc1ccc(-c2nc(CN3CCCC(C(=O)O)C3)c(C)o2)cc1 (centres undefined)
  cell number change: 32.4%
[1]
  AC50: 32.6 µM [rising, single point]

## CCN(CC(=O)Nc1ccccc1OC)C(=O)CN1C(=O)NC(C)(c2ccccc2)C1=O (centres undefined)
  cell number change: -0.56%
[2]
  AC50: 0.0058 µM [rising, full curve, poor fit]

## CCc1ccc(NC(=O)c2cccc(C(=O)Nc3ccc(CC)cc3)n2)cc1
  cell number change: 7.43%
[1]
  AC50: 6.51 µM [rising, single point]
[2]
  AC50: 29.1 µM [rising, single point]

## CCOC(=O)C1CCN(C(=O)COC(=O)c2cccc(F)c2)CC1
  cell number change: 86.7%

## COc1cc2ccccc2cc1C(=O)Nc1cccnc1
  cell number change: -27%
[2]
  AC50: 0.651 µM [rising, full curve, poor fit]

## CCN(CC)c1ccc(NC(=O)C2CCCC2)cc1
  cell number change: -3.81%
[2]
  AC50: 29.1 µM [falling, single point]

## O=C(N/C(=C\c1ccco1)C(=O)N1CCOCC1)c1ccco1
  cell number change: 8%

## CCCc1cc(=O)oc2cc(C)c(CN3CCCC3)c(O)c12
  cell number change: -11.9%
[2]
  AC50: 32.6 µM [falling, single point]

## Cn1ccnc1SCC(=O)c1ccc(OC(F)F)cc1
  cell number change: -12.5%

## O=C(N/N=C/c1ccco1)c1cccc(S(=O)(=O)Nc2ccccc2Cl)c1
[2]
  AC50: 29.1 µM [rising, single point]

## O=C(N1CCOCC1)N1CCN(S(=O)(=O)N2CCOCC2)CC1
  cell number change: -8.65%

## O=C(NC1CCN(Cc2ccccc2)CC1)C1CCN(S(=O)(=O)c2ccc(Cl)cc2)CC1
  cell number change: -23.1%

## O=CNCc1nc2ccccc2n1CCCc1ccccc1
  cell number change: -3.15%
[2]
  AC50: 6.51 µM [rising, single point]

## Cc1ccc2nc(N3CCN(C)CC3)c(C=O)c(=O)n2c1
  cell number change: -10.6%
[2]
  AC50: 29.1 µM [rising, partial curve, poor fit]

## CCOC(=O)N1CCN(C(=O)COc2cccc3c2CCN(Cc2ccccc2F)C3=O)CC1
  cell number change: -1.49%
[2]
  AC50: 29.1 µM [rising, partial curve, poor fit]

## O=C(CCCN1C(=O)/C(=C\c2cccs2)SC1=S)Nc1ccccn1
  cell number change: -0.877%

## CCOC(=O)Cn1c2ccccc2n2nc(CCC(=O)O)c(=O)nc12
  cell number change: 97.2%

## Cc1ccc(C(=O)CC(=O)c2cccc(F)c2)c(O)c1
  cell number change: -63.8%
[1]
  AC50: 32.6 µM [falling, single point]
[2]
  AC50: 6.51 µM [rising, single point]

## CCc1nc2ccc(C(=O)NCCCN3CCN(c4ccc(F)cc4)CC3)cc2nc1CC
  cell number change: 8.03%
[2]
  AC50: 18.4 µM [falling, single point]

## CCn1c(CSc2nc3ccccc3[nH]2)nc2cc(C(=O)O)ccc21
  cell number change: -7.36%
[2]
  AC50: 23.1 µM [falling, partial curve]

## O=C(CCS(=O)(=O)c1ccccc1)Nc1nccs1
  cell number change: 2.15%

## O=C(COC(=O)/C=C/c1ccc(OC(F)F)cc1)NC(=O)NCc1ccccc1
  cell number change: -30.1%
[1]
  AC50: 29.1 µM [falling, single point]
[2]
  AC50: 4.11 µM [falling, full curve, poor fit]

## COc1ccc(CN2CCC(C(=O)Nc3ccc(Oc4cccnc4)cc3)CC2)cc1
  cell number change: -6.51%
[2]
  AC50: 6.51 µM [rising, single point]

## COc1ccc(-n2ncc(C(C)NS(=O)(=O)c3cc(F)ccc3C)c2C)cc1 (centres undefined)
[2]
  AC50: 29.1 µM [falling, single point]

## O=[N+]([O-])c1cc(C(F)(F)F)ccc1NCCc1c[nH]c2ccc(O)cc12
[2]
  AC50: 0.731 µM [falling, full curve]

## Cn1cc(Cl)c(C(=O)NNC(=S)Nc2cccc(Cl)c2)n1
  cell number change: 19.4%
[2]
  AC50: 29.1 µM [rising, partial curve]

## CCCCn1c(SCC(=O)c2c(N)n(C3CC3)c(=O)[nH]c2=O)nc2cc(S(N)(=O)=O)ccc21
  cell number change: -17%

## C(=N\Nc1nc2ccccc2[nH]1)/c1ccc2c(c1)OCO2
  cell number change: -40.7%
[1]
  AC50: 0.651 µM [rising, single point]
[2]
  AC50: 29.1 µM [falling, partial curve, poor fit]

## CCN(CC)c1ccc(CNc2nc3ccccc3n2CCN2CCOCC2)cc1
  cell number change: -47.2%
[2]
  AC50: 3.98 µM [falling, partial curve, poor fit]

## O=C(O)CCCNS(=O)(=O)c1ccc2ccccc2c1
  cell number change: 0.0443%
[2]
  AC50: 0.58 µM [falling, full curve]

## O=C(Nc1ccccc1)N1CCN(c2ccc(C(F)(F)F)cn2)CC1
  cell number change: 125%
[1]
  AC50: 29.1 µM [rising, single point]
[2]
  AC50: 29.1 µM [rising, single point]

## Cc1nnc(SCC(=O)N(C)CC(=O)Nc2ccc(F)cc2)n1Cc1ccccc1
  cell number change: 0.521%

## N=c1c(C(=O)NC2CCCCC2)cc2c(=O)n3ccccc3nc2n1CCc1ccccc1
  cell number change: 21.8%

## O=C(NC1CCCCCCC1)c1ccc2c(c1)OCO2
  cell number change: 128%
[1]
  AC50: 2.06 µM [rising, full curve, poor fit]

## CN(C)CCCNS(=O)(=O)c1cc(Cl)c(Cl)cc1Cl
  cell number change: 44.4%
[1]
  AC50: 4.11 µM [rising, full curve, poor fit]
[2]
  AC50: 5.17 µM [rising, full curve]

## COc1ccc(/C=C/C(=O)Nc2cc(C)nn2-c2nc3ccccc3n2Cc2cccc([N+](=O)[O-])c2)cc1
  cell number change: -2.43%
[2]
  AC50: 0.00461 µM [falling, full curve, poor fit]

## O=C(Oc1ccc(/C=N/n2cnnc2)cc1)c1cccc([N+](=O)[O-])c1
  cell number change: -29.1%
[2]
  AC50: 35.5 µM [falling, partial curve, poor fit]

## COc1ccc(N2CC(C(=O)NCCc3ccc(Cl)cc3)CC2=O)cc1 (centres undefined)
  cell number change: 2.38%
[2]
  AC50: 29.1 µM [rising, single point]

## c1cnc(N2CC[N+]3(CCCC3)CC2)nc1
  cell number change: -6.48%

## c1ccc2c(C3=NNC(=NC4CCCCC4)SC3)c[nH]c2c1
  cell number change: -20.8%
[2]
  AC50: 5.8 µM [rising, full curve]

## O=c1cc(N2CCOCC2)[nH]c(=O)n1Cc1ccc(F)cc1
  cell number change: -5.32%
[2]
  AC50: 0.184 µM [falling, full curve, poor fit]

## Cc1cc(NC(=O)CSc2nc(CCC3CCCC3)nc3ccccc23)no1
[1]
  AC50: 2.59 µM [rising, single point]

## O=C(c1ccc(F)c(S(=O)(=O)N2CCOCC2)c1)N(CCc1ccccc1)Cc1ccccc1
  cell number change: 11.5%

## CCOC(=O)c1ccc(-n2c(CN3CCOCC3)nc3ccc([N+](=O)[O-])cc3c2=O)cc1
[1]
  AC50: 0.366 µM [rising, full curve, poor fit]
[2]
  AC50: 0.461 µM [rising, full curve]

## O=C(CCS(=O)(=O)c1ccc(Br)cc1)NC1CCCC1
  cell number change: -8.24%
[1]
  AC50: 0.58 µM [falling, full curve]

## Cc1ccc(C(=O)CSc2nc3cc(S(=O)(=O)N4CCOCC4)ccc3o2)cc1
  cell number change: 1.81%

## O=C(COC(=O)C1=COCCO1)Nc1cc(S(=O)(=O)N2CCCCC2)ccc1Cl
  cell number change: 46.4%

## Cc1ccc(S(=O)(=O)NCC(c2cccnc2)N2CCN(Cc3ccccc3)CC2)cc1 (centres undefined)
  cell number change: 31.4%
[1]
  AC50: 3.66 µM [rising, full curve]
[2]
  AC50: 29.1 µM [rising, single point]

## CCCCN1CC(=O)N2[C@H]3c4cc(Cl)ccc4OC[C@@H]3[C@H](c3ccccc3)[C@]2(C)C1=O
  cell number change: -10.7%
[2]
  AC50: 0.13 µM [rising, single point]

## COc1ccc(/C=C/C(=O)OCC(=O)Nc2cc(S(=O)(=O)N(C)C)ccc2Cl)cc1
  cell number change: 84.5%

## CC1=C(c2ccccc2)C(=S)NC(C)(C)C1
  cell number change: -41.5%
[1]
  AC50: 16.4 µM [falling, single point]

## Cc1cccc(N(Cc2cc3ccccc3[nH]c2=O)C(=O)c2cccs2)c1
  cell number change: -29.3%
[2]
  AC50: 16.4 µM [falling, single point]

## CCOC(=O)CS(=O)(=O)c1ccc(C(F)(F)F)cn1
  cell number change: -18.6%
[1]
  AC50: 0.116 µM [falling, full curve, poor fit]
[2]
  AC50: 23.1 µM [falling, partial curve]

## CC(=O)c1ccc(-c2ccc(C(=O)Nc3nc(C)c(C(C)=O)s3)o2)cc1
  cell number change: -0.627%
[2]
  AC50: 29.1 µM [rising, single point]

## O=C(c1ccccc1)c1ccc(-c2ccc(O)cc2)cc1
  cell number change: -7.27%
[2]
  AC50: 2.06 µM [falling, single point]

## COc1ccc(-c2nnc(NC(=O)Cc3ccccc3)o2)cc1
  cell number change: 61.3%
[1]
  AC50: 29.1 µM [rising, single point]
[2]
  AC50: 0.58 µM [rising, single point]

## CCN1CCN(c2cc(C)c3cc(NC(=O)c4ccccc4F)ccc3n2)CC1
[1]
  AC50: 2.59 µM [rising, partial curve]
[2]
  AC50: 4.61 µM [rising, partial curve]

## COc1nc(Nc2cccc(F)c2)nc(OC)n1
  cell number change: 25.8%

## COc1ccc(Cl)cc1NC(=O)CCNS(=O)(=O)c1cccc2nonc12
  cell number change: -18.1%
[2]
  AC50: 0.206 µM [rising, single point]

## COc1ccc(OC)c(NC(=O)C2CC(=O)N(Cc3ccco3)C2)c1 (centres undefined)
  cell number change: 75%
[1]
  AC50: 29.1 µM [rising, single point]

## CC(=O)c1cccc(NC(=O)CSc2ccc(-c3sc(C)nc3C)nn2)c1
  cell number change: -11%
[2]
  AC50: 4.61 µM [rising, partial curve]

## NNC(=O)C1CC(O)CN1S(=O)(=O)c1ccc(Cl)cc1 (centres undefined)
  cell number change: 1.32%
[2]
  AC50: 0.00461 µM [falling, full curve, poor fit]
